# Measurements reported in PubChem BioAssay AID652259 (Drosophila RNAi Screening Center, 2013)
# Purpose: 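Identify new Wingless signalling regulators in fly cells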 (primary screen)
# Cells: Drosophila clone 8 imaginal disc epithelial cells
# Reagents: long dsRNA against Drosophila genes
# Treatment: pathway stimulated by co-transfected Wingless expression plasmid
# Detection: 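Dual luciferase reads per well after Wingless plasmid stimulation: reporter firefly light and Renilla control light; activity is firefly divided by Renilla, a ratio not deposited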
# Scale: firefly reporter light: higher = more Wg reporter light, before normalisation; Renilla control light: higher = more transfected or surviving cells
# Hit rule: 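Strong candidates differ from their plate mean by at least two out of four per-plate statistical tests; weak candidates meet just one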
# Calls: active = candidate regulator (raises or lowers reporter); inactive = not a candidate
# In all, the deposit lists about 22,000 reagents; this is a random part of those with a known target gene and a result. Over the whole deposit, 233 (1.1%) are marked active. 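Light values are raw, unnormalised plate reads; the ratio scores behind the reporter calls were not deposited.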 Unmarked entries are inactive. Names joined by + are all predicted targets of the reagent. The record does not give: the amount of reagent, the time to read-out, the dose of the treatment.
gene,DRSC id,"reporter change call, replicate 1","firefly reporter light, replicate 1","firefly reporter light, replicate 2","Renilla control light, replicate 1","Renilla control light, replicate 2"
CG15498 (GeneID 42548),DRSC15040,,33393,,7096,
Sec10 (GeneID 42863),DRSC17053,,2818,5923,988,1367
CG32820 + CG17450 + CG32819,DRSC21803,,5.77e5,7.26e5,3.69e5,2.64e5
CG32820 + CG17450 + CG32819,DRSC22812,,7.53e5,8.87e5,3.65e5,5.01e5
Ugt35E1 (GeneID 53504),DRSC15193,,21259,,6502,
CG43307 (GeneID 12798569),DRSC00893,,23216,7.08e5,11449,3.41e5
CG42337 (GeneID 40335),DRSC11686,,20434,,4566,
CG42337 (GeneID 40335),DRSC11687,Wg reporter activity raised (active),12605,,1349,
nom (GeneID 41038),DRSC16389,,14544,,3323,
Pepck1 (GeneID 37131),DRSC07505,,8786,,3355,
CG32762 (GeneID 318198),DRSC18298,,28438,,11318,
Drep4 (GeneID 34734),DRSC03408,,2260,6677,1491,3808
kl-3 (retired record) (GeneID 5740653),DRSC20891,,15904,,9401,
CG17612 (GeneID 33639),DRSC00505,,12716,,4969,
CG10516 (GeneID 39738),DRSC09738,,8243,,3360,
lin-52 (GeneID 31499),DRSC18106,,27361,,10107,
CG15330 (GeneID 31715),DRSC18014,,11920,,6103,
Cdep (GeneID 40608),DRSC12028,,4084,,2006,
Cdep (GeneID 40608),DRSC12220,Wg reporter activity lowered,6902,,1516,
Cdep (GeneID 40608),DRSC12291,,10864,,4678,
mRpL33 (GeneID 50381),DRSC18319,,17368,,7011,
AhcyL1 (GeneID 38342),DRSC08647,,4540,,2080,
CG7099 (GeneID 34753),DRSC03006,,8545,,3692,
CG13385 (GeneID 34164),DRSC02259,,2460,6485,754,3792
CG1792 (GeneID 43727),DRSC15290,,15907,,12456,
MED26 (GeneID 43816),DRSC17126,,7617,,930,
MED26 (GeneID 43816),DRSC17147,,28775,,9677,
MED26 (GeneID 43816),DRSC17148,Wg reporter activity raised (active),7256,14138,576,1363
Best4 (GeneID 39660),DRSC10792,,6890,,2614,
CG17721 (GeneID 41354),DRSC15253,,13514,,4065,
GATAd (GeneID 34395),DRSC02803,,8773,,2837,
LManV (GeneID 34205),DRSC03223,,10509,,2640,
eIF3c (GeneID 37005),DRSC06905,,3058,,1376,
CG4382 (GeneID 34279),DRSC02743,,3729,6624,1177,3057
CG7054 (GeneID 42643),DRSC16185,,2299,8023,1313,2521
Miro (GeneID 42845),DRSC15795,,3216,5847,1344,2276
lncRNA:iab8 (GeneID 12798430),DRSC13187,,4423,7.58e5,1643,3.47e5
lncRNA:iab8 (GeneID 12798430),DRSC22252,,5.86e5,5.82e5,1.32e5,1.42e5
Acp24A4 (GeneID 318936),DRSC22352,,4.64e5,5.77e5,1.66e5,1.91e5
CG10761 (GeneID 31749),DRSC17753,,16848,,8421,
CG12531 (GeneID 32986),DRSC19466,,12459,,9401,
Gpdh3 (GeneID 42624),DRSC15325,,33720,,6186,
CG10332 (retired record) + IM18,DRSC04064,,3508,10325,755,3024
Serinc (GeneID 39827),DRSC11296,,3003,,823,
Trf (GeneID 34102),DRSC03462,,3015,7320,1142,3915
Pex14 (GeneID 40294),DRSC11754,,15621,,5332,
TyrR (GeneID 42136),DRSC13259,,4075,,2217,
TyrR (GeneID 42136),DRSC16242,,12792,,1732,
Rrp47 (GeneID 32558),DRSC20124,,29712,,11155,

6 entries already listed, arranged by “firefly reporter light, replicate 1”, highest first.
gene,DRSC id,"reporter change call, replicate 1","firefly reporter light, replicate 1","firefly reporter light, replicate 2","Renilla control light, replicate 1","Renilla control light, replicate 2"
MED26 (GeneID 43816),DRSC17147,,28775,,9677,
CG17721 (GeneID 41354),DRSC15253,,13514,,4065,
GATAd (GeneID 34395),DRSC02803,,8773,,2837,
MED26 (GeneID 43816),DRSC17126,,7617,,930,
MED26 (GeneID 43816),DRSC17148,Wg reporter activity raised (active),7256,14138,576,1363
Best4 (GeneID 39660),DRSC10792,,6890,,2614,
